Data on nine compounds can be found in PubChem BioAssay AID264 (DTP/NCI, 2004).

The test system of this test is nude mice, LX-1 lung xenograft intrarenal, tumor weight T/C. In words: NCI In Vivo Anticancer Drug Screen. Data for tumor model Human Lung LX-1 Xenograft (intrarenal inoculation) in NU/NU Swiss (nude) mice. As to conditions: T/C endpoint: mean tumor weight change, evaluated on day 11, higher T/C = larger tumour. Here is the method:
The antitumor activity of compounds was measured in mice bearing transplantable tumors. Survival or tumor size were measured and the results are expressed as the measurement made in the treated group (T) divided by the measurement made in the vehicle treated control group (C). The tumor model used in this assay is Human Lung LX-1 Xenograft (intrarenal inoculation) in NU/NU Swiss (nude) mice
(In xenograft studies the graft and the host belong to different species.)

[1] abbreviates: dose: 0.12 mg/kg/injection, schedule: Q01DX010 (sc), vehicle: Klucel (hydroxypropylcellulose) (HPC).
Setting [2] is: dose: 0.25 mg/kg/injection, schedule: Q01DX010 (sc), vehicle: Klucel (hydroxypropylcellulose) (HPC).
[3] abbreviates: dose: 0.5 mg/kg/injection, schedule: Q01DX010 (sc), vehicle: Klucel (hydroxypropylcellulose) (HPC).
[4] abbreviates: dose: 1.0 mg/kg/injection, schedule: Q01DX010 (sc), vehicle: Klucel (hydroxypropylcellulose) (HPC).

Molecules are shown by their SMILES. The list is a part of this screen's results and no random one: its compounds were picked by chemical class. Other doses and runs of a compound may be missing. T/C: endpoint of the treated group in % of that of the vehicle group. Schedules are NCI's codes, read here as Q, the interval in days (D) or hours (H), X, the number of doses. Some entries show no survivor count and are marked so; the dose need not have been tolerated.

Turning to `CC(=O)OC[C@]12CC(=O)C(C)=C[C@H]1O[C@@H]1C(=O)[C@@H](OC(C)=O)[C@@]2(C)[C@@]12CO2`, the T/C was 139 % of control [survivor count not shown] (dose: 2.0 mg/kg/injection, schedule: Q04DX003 (sc), vehicle: water); 155 % of control [survivor count not shown] (dose: 4.0 mg/kg/injection, schedule: Q04DX003 (sc), vehicle: water); 172 % of control [survivor count not shown] (dose: 8.0 mg/kg/injection, schedule: Q04DX003 (sc), vehicle: water).
Take `CC(=O)OCC12CCC(C)=CC1OC1C(O)C(OC(C)=O)C2(C)C12CO2` (configuration not stated): the T/C (dose: 0.5 mg/kg/injection, schedule: Q01DX010 (sc), vehicle: saline) was 80 % of control [survivor count not shown].
For `C[C@@H](O)[C@H]1/C=C/C=C\C(=O)O[C@@H]2C[C@H]3O[C@@H]4[C@@H]5OC5(C)CCC4(COC(=O)[C@H]4O[C@]4(C)[C@@H](O)CO1)[C@]2(C)[C@]31CO1` (some centres not stated), the T/C runs as follows: (dose: 2.5 mg/kg/injection, schedule: Q01DX010 (sc), vehicle: saline + alcohol) 113 % of control [survivor count not shown]; (dose: 5.0 mg/kg/injection, schedule: Q01DX010 (sc), vehicle: saline + alcohol) 84 % of control [survivor count not shown]; (dose: 10.0 mg/kg/injection, schedule: Q01DX010 (sc), vehicle: saline + alcohol) 48 % of control [survivor count not shown]; (dose: 20.0 mg/kg/injection, schedule: Q01DX010 (sc), vehicle: saline + alcohol) 65 % of control [survivor count not shown].
For the compound `CC1=C[C@H]2O[C@@H]3[C@H](O)[C@@H](O)[C@](C)([C@@]2(CO)CC1)[C@@]31CO1`, the T/C (dose: 2.0 mg/kg/injection, schedule: Q01DX010 (sc), vehicle: saline) is 70 % of control [survivor count not shown].
With `C=C(C)C(=O)OCC12CCC(C)=CC1OC1C(=O)C(OC(=O)C(=C)C)C2(C)C12CO2` (configuration not stated), the T/C (dose: 4.0 mg/kg/injection, schedule: Q04DX003 (sc), vehicle: saline with Tween-80) is 136 % of control [survivor count not shown].
In the case of `CC(=O)OC[C@]12C[C@H](OC(=O)CC(C)C)C(C)=C[C@H]1O[C@@H]1[C@H](O)[C@@H](O)[C@@]2(C)[C@@]12CO2`, the T/C by setting is: (dose: 1.0 mg/kg/injection, schedule: Q04DX003 (sc), vehicle: saline) 96 % of control [survivor count not shown]; (dose: 2.0 mg/kg/injection, schedule: Q04DX003 (sc), vehicle: saline) 113 % of control [survivor count not shown]; (dose: 4.0 mg/kg/injection, schedule: Q04DX003 (sc), vehicle: saline) 153 % of control [survivor count not shown].
Consider `CC1=CC2OC3CC4OC(=O)/C=C/C=C/C(C(C)O)OCC/C(C)=C/C(=O)OCC2(CC1)C4(C)C31CO1` (configuration not stated), for which the T/C (dose: 25.0 mg/kg/injection, schedule: Q04DX003 (sc), vehicle: saline with Tween-80) is 118 % of control [survivor count not shown].
Turning to `CC1=CC2OC3CC4OC(=O)/C=C/C=C/C(C(C)O)OCC(O)C(C)CC(=O)OCC2(CC1O)C4(C)C31CO1` (configuration not stated), the T/C reads like this: under setting [1], 125 % of control [survivor count not shown]; under setting [2], 75 % of control [survivor count not shown]; under setting [3], 106 % of control [survivor count not shown]; under setting [4], 104 % of control [survivor count not shown].
For the compound `CC1=C[C@H]2O[C@@H]3C[C@H]4OC(=O)/C=C\C=C\C(C(C)O)OCC(O)C(C)CC(=O)OC[C@@]2(C[C@@H]1O)[C@]4(C)[C@@]31CO1` (some centres not stated), the T/C was 135 % of control [survivor count not shown] under setting [1], 77 % of control [survivor count not shown] under setting [2], 71 % of control [survivor count not shown] under setting [3] and 53 % of control [survivor count not shown] under setting [4].
